Amino acid sequences for entries named in this document (tags omitted).
UniProt P51159: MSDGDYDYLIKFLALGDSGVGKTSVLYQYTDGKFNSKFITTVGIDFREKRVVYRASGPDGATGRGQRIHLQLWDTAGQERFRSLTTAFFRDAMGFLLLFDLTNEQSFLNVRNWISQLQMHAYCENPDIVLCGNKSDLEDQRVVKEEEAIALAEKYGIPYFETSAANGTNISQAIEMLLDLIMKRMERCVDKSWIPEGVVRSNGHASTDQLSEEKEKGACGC

According to PMC5323046:

T1: HA-tagged RAB27B (human) (UniProt O00194)
T1 sequence: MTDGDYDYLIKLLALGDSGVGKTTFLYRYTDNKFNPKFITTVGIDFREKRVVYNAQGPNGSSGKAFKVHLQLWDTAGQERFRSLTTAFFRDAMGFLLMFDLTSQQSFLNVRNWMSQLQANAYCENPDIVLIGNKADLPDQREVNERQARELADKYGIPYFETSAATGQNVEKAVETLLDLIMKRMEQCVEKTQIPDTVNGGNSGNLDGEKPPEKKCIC

T2: HA-tagged full-length SMCR8 (human) (UniProt Q8TEV9)
T2 sequence: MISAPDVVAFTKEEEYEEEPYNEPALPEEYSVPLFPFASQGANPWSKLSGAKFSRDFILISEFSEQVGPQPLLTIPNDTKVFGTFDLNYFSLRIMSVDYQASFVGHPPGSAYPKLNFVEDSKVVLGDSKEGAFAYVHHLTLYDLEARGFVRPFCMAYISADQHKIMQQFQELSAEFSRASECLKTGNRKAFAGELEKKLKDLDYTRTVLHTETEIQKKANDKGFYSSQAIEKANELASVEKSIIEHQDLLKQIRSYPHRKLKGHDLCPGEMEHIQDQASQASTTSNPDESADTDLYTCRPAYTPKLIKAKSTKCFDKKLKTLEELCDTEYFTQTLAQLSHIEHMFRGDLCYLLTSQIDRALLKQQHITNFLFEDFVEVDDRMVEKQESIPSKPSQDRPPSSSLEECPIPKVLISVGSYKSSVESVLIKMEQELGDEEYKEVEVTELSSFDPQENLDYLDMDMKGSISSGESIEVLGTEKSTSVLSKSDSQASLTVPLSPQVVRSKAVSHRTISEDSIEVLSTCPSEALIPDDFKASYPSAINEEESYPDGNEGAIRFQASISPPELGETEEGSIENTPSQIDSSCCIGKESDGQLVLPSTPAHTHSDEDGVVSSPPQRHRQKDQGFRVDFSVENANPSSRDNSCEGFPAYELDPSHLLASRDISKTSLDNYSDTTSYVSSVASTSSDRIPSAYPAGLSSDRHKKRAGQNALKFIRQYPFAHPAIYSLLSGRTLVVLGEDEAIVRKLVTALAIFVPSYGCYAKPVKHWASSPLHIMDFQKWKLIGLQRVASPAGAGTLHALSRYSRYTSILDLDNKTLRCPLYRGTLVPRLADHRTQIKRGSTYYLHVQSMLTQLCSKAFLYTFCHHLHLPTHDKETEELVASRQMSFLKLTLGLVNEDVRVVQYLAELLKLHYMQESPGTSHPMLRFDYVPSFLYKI


Tests used:
Assay in all cases: affinity purification with mass spectrometry; 293T-REx cells inducibly expressing N-terminally HA-tagged baits; lysis in MCLB (50 mM Tris pH 7.4, 150 mM NaCl, 0.5% NP40); anti-HA-agarose, elution with HA peptide, trypsin, LC-MS/MS; CompPASS, HCIPs with WDN >=1 and APSM >=2
HA-tagged RAB27B (human) = target: T1, HA-tagged RAB27B (human)
[1] = target: HA-tagged RAB27A (Ras-related protein Rab-27A) (human) (UniProt P51159)
[2] = target: T2, HA-tagged full-length SMCR8 (human)

Row | Binder | binding (HA-tagged RAB27B (human)) | binding [1] | binding [2]
1 | SYTL1 (protein, UniProt Q8IYJ3 1-562) MPQRGHPSQEGLWALPSLPMAHGPKPETEGLLDLSFLTEEEQEAIAGVLQRDARLRQLEEGRVSKLRASVADPGQLKILTGDWFQEARSQRHHNAHFGSDLVRASMRRKKSTRGDQAPGHDREAEAAVKEKEEGPEPRLTIDEAPQERLRETEGPDFPSPSVPLKASDPEEASQAQEDPGQGDQQVCAEEADPELEPASGGEQEPRPQQAQTKAASQILENGEEAPGPDPSLDRMLSSSSSVSSLNSSTLSGSQMSLSGDAEAVQVRGSVHFALHYEPGAAELRVHVIQCQGLAAARRRRSDPYVKSYLLPDKQSKRKTAVKKRNLNPVFNETLRYSVPQAELQGRVLSLSVWHRESLGRNIFLGEVEVPLDTWDWGSEPTWLPLQPRVPPSPDDLPSRGLLALSLKYVPAGSEGAGLPPSGELHFWVKEARDLLPLRAGSLDTYVQCFVLPDDSQASRQRTRVVRRSLSPVFNHTMVYDGFGPADLRQACAELSLWDHGALANRQLGGTRLSLGTGSSYGLQVPWMDSTPEEKQLWQALLEQPCEWVDGLLPLRTNLAPRT | binds | binds | 
2 | MYRIP (protein, UniProt Q8NFW9 1-859) MGRKLDLSGLTDDETEHVLQVVQRDFNLRKKEEERLSELKQKLDEEGSKCSILSKHQQFVEHCCMRCCSPFTFLVNTKRQCGDCKFNVCKSCCSYQKHEKAWVCCVCQQARLLRAQSLEWFYNNVKSRFKRFGSAKVLKNLYRKHRLESGACFDILGGSLFESNLENEGSISGSDSTFYRQSEGHSVMDTLAVALRVAEEAIEEAISKAEAYGDSLDKQNEASYLRDHKEELTEELATTILQKIIRKQKSKSEQQVEEEPGWPHPQSCSTKVADEGTSASPGGYRAPAALWRSQSAFSITGEEALKTPPVEAPSRQPRDQGQHPRAESALPSWKSVDRLDETNLAPVLQSPDGNWVALKDGAPPPTRLLAKPKSGTFQALEVASSVASAYDEMGSDSEEDFDWSEALSKLCPRSRALPRNPQPQPTQAQSSDQGPIAASPSSALSPNPEAMCSDSETSSAGSSREVGHQARLSWLQRKAPRNPAAEKMRLHGELDVNFNPQLASRETSDSSEPEEAPHTTDRRARRWRRARLGSEEPSKEPSSPSAQLRDLDTHQVSDDLSETDISNEARDPQTLTDTTEEKRRNRLYELAMKMSEKETSSGEDQESEPKTESENQKESLSSEDNSQSVQEELKKKFSAVSLCNISTEVLKVINATEELIAGSTGPWESPQVPPDRQKGMFPRGTDQVRLDEQLTSLEENVYLAAGTVYGLETQLTELEDAARCIHSGTDETHLADLEDQVATAAAQVHHAELQISDIESRISALTIAGLNIAPCVRFTRRRDQKQRTQVQTIDTSRQQRRKLPAPPVKAEKIETSSVTTIKTFNHNFILQGSSTNRTKERKGTTKDLMEPALESAVMY | binds | binds | 
3 | SLC33A1 (protein, UniProt O00400 1-549) MSPTISHKDSSRQRRPGNFSHSLDMKSGPLPPGGWDDSHLDSAGREGDREALLGDTGTGDFLKAPQSFRAELSSILLLLFLYVLQGIPLGLAGSIPLILQSKNVSYTDQAFFSFVFWPFSLKLLWAPLVDAVYVKNFGRRKSWLVPTQYILGLFMIYLSTQVDRLLGNTDDRTPDVIALTVAFFLFEFLAATQDIAVDGWALTMLSRENVGYASTCNSVGQTAGYFLGNVLFLALESADFCNKYLRFQPQPRGIVTLSDFLFFWGTVFLITTTLVALLKKENEVSVVKEETQGITDTYKLLFAIIKMPAVLTFCLLILTAKIGFSAADAVTGLKLVEEGVPKEHLALLAVPMVPLQIILPLIISKYTAGPQPLNTFYKAMPYRLLLGLEYALLVWWTPKVEHQGGFPIYYYIVVLLSYALHQVTVYSMYVSIMAFNAKVSDPLIGGTYMTLLNTVSNLGGNWPSTVALWLVDPLTVKECVGASNQNCRTPDAVELCKKLGGSCVTALDGYYVESIICVFIGFGWWFFLGPKFKKLQDEGSSSWKCKRNN |  | binds | 
4 | GLRX5 (protein, UniProt Q86SX6 32-157) AGSGAGGGGSAEQLDALVKKDKVVVFLKGTPEQPQCGFSNAVVQILRLHGVRDYAAYNVLDDPELRQGIKDYSNWPTIPQVYLNGEFVGGCDILLQMHQNGDLVEELKKLGIHSALLDEKKDQDSK |  |  | binds
5 | NUBPL (protein, UniProt Q8TB37 39-319) GAGSETLKQRRTQIMSRGLPKQKPIEGVKQVIVVASGKGGVGKSTTAVNLALALAANDSSKAIGLLDVDVYGPSVPKMMNLKGNPELSQSNLMRPLLNYGIACMSMGFLVEESEPVVWRGLMVMSAIEKLLRQVDWGQLDYLVVDMPPGTGDVQLSVSQNIPITGAVIVSTPQDIALMDAHKGAEMFRRVHVPVLGLVQNMSVFQCPKCKHKTHIFGADGARKLAQTLGLEVLGDIPLHLNIREASDTGQPIVFSQPESDEAKAYLRIAVEVVRRLPSPSE |  |  | binds
6 | HPS6 (protein, UniProt Q86YV9 1-775) MKRSGTLRLLSDLSAFGGAARLRELVAGDSAVRVRGSPDGRHLLLLRPPGAVAPQLLVASRGPGAELERAWPAGQPSPLDAFFLPWPARPALVLVWESGLAEVWGAGVGPGWRPLQSTELCPGGGARVVAVAALRGRLVWCEERQARAEGPSGSPAAAFSHCVCVRTLEPSGEASTSLGRTHVLLHHCPAFGLLASCRQLFLVPTATTWPGVAHVLLIWSPGKGKVMVAAPRLGLSYSKSLNPGRGDTWDFRTLLRGLPGLLSPREPLAVHTWAPTPQGLLLLDFGGTVSLLQSHGGTRAVGTLQEAPVGPWGSAALGTFQGTLACVLGSTLELLDMGSGQLLERKVLSTDRVHLLEPPAPGMEDEEELETRGNLRLLSALGLFCVGWEAPQGVELPSAKDLVFEEACGYYQRRSLRGAQLTPEELRHSSTFRAPQALASILQGHLPPSALLTMLRTELRDYRGLEQLKAQLVAGDDEEAGWTELAEQEVARLLRTELIGDQLAQLNTVFQALPTAAWGATLRALQLQLDGNGKLRSQAPPDVWKKVLGGITAGKEPPNGILPPFELLCQCLCQLEPRWLPPFVELAQQQGGPGWGAGGPGLPLYRRALAVLGEEGTRPEALELELLLSSGRPKAVLQAVGQLVQKEQWDRALDAGLALGPSSPLLRSEIFKLLLAEFAQHRRLDAHLPLLCRLCPPELAPAELLLLLRTYLPDEVGPPTPFPEPGAEPPLTVGLLKALLEQTGAQGWLSGPVLSPYEDILWDPSTPPPTPPRDL |  |  | binds
7 | SYTL4 (protein, UniProt Q96C24 1-671) MSELLDLSFLSEEEKDLILSVLQRDEEVRKADEKRIRRLKNELLEIKRKGAKRGSQHYSDRTCARCQESLGRLSPKTNTCRGCNHLVCRDCRIQESNGTWRCKVCAKEIELKKATGDWFYDQKVNRFAYRTGSEIIRMSLRHKPAVSKRETVGQSLLHQTQMGDIWPGRKIIQERQKEPSVLFEVPKLKSGKSALEAESESLDSFTADSDSTSRRDSLDKSGLFPEWKKMSAPKSQVEKETQPGGQNVVFVDEGEMIFKKNTRKILRPSEYTKSVIDLRPEDVVHESGSLGDRSKSVPGLNVDMEEEEEEEDIDHLVKLHRQKLARSSMQSGSSMSTIGSMMSIYSEAGDFGNIFVTGRIAFSLKYEQQTQSLVVHVKECHQLAYADEAKKRSNPYVKTYLLPDKSRQGKRKTSIKRDTINPLYDETLRYEIPESLLAQRTLQFSVWHHGRFGRNTFLGEAEIQMDSWKLDKKLDHCLPLHGKISAESPTGLPSHKGELVVSLKYIPASKTPVGGDRKKSKGGEGGELQVWIKEAKNLTAAKAGGTSDSFVKGYLLPMRNKASKRKTPVMKKTLNPHYNHTFVYNGVRLEDLQHMCLELTVWDREPLASNDFLGGVRLGVGTGISNGEVVDWMDSTGEEVSLWQKMRQYPGSWAEGTLQLRSSMAKQKLGL | binds | binds | 

Results are given in words; binding and its absence hold for the method and conditions named. Binding seen in cells or lysates may run through a third protein. A yes stands for co-enrichment or nearness to the bait. Other partners may have been found. For some of these results: Where a sequence is shown, tags or fusion partners need not be part of it.
